# Values joined by “and” are separate entries in the source; they are usually repeats but may differ in a detail not shown here. Equal entries are not always repeated. Structures can show the parent of a compound that is named as a salt. ± gives the standard deviation of the averaged measurements. The list shows a part of the results. Baselines shift from plate to plate; read single values as rough.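 Primary human stellate myofibroblasts activated in culture; inactivation shown by regained lipid droplets. Readout: fraction of Hoechst-counted cells exceeding a per-plate Bodipy threshold, duplicate wells, each plate with DMSO negative and nortriptyline positive controls. Hits: control-normalized score beyond the plate's top-tenth-percentile nortriptyline wells, or among its three best wells. Final well concentrations unstated.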
# System: primary human hepatic stellate cells (donor 1)
# Experiment: percent Bodipy-positive cells; higher = more lipid droplet accumulation
# Details: 48 h
# Experimental: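 Primary lipid accumulation screen in primary human hepatic stellate cell myofibroblasts (donor 1, passage 8) in 384-well plates. 100 nL of library compound was pin-transferred into 30 µL medium in duplicate, and cells were treated for 48 h. The 'Scaled' score combines distance from plate baseline, toxicity and reproducibility penalties, and is normalised to nortriptyline (positive) and DMSO (negative) controls on each plate. A hit is defined as scaled >0.85 or among the top 3 wells per plate.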
# [1] = library stock concentration: 3.33 mM
# [2] = library stock concentration: 10 mM
# [3] = library stock concentration: 5.1 mM
# [4] = library stock concentration: 1 mM
structure (smiles),measurement,setting,value
CN1C2CC(O)CC1C1OC12 (stereo not drawn) [Scopine],percent Bodipy-positive cells,[1],5.61 ± 0.073%
same,percent Bodipy-positive cells,[2],15.8 ± 4%
CC(C)N(CCNC(=O)CN1CCCC1=O)C(C)C [Pramiracetam],percent Bodipy-positive cells,[1],5.71 ± 2%
same,percent Bodipy-positive cells,[2],9.47 ± 2.1%
O=C[C@H](Cl)[C@@H](O)[C@H](O)[C@H](O)CO [2-Chloro-2-deoxy-D-glucose],percent Bodipy-positive cells,[2],49.3 ± 14%
NNC(N)=O [Semicarbazide hydrochloride],percent Bodipy-positive cells,[2],18.6 ± 4.1%
CNCC(=O)c1ccc(O)c(O)c1 [Adrenalone HCl],percent Bodipy-positive cells,[1],11.9 ± 2.2%
same,percent Bodipy-positive cells,[2],36.4 ± 5.8%
CNCC(=O)c1ccc(O)c(O)c1,percent Bodipy-positive cells,[2],30.5 ± 1.7%
Cc1cc2c(C(C)C)c(O)c(O)c(C=O)c2c(O)c1-c1c(C)cc2c(C(C)C)c(O)c(O)c(C=O)c2c1O,percent Bodipy-positive cells,[2],77.4 ± 2%
O=C(NC(=O)c1c(F)cccc1F)Nc1cc(Cl)c(OC(F)(F)C(F)C(F)(F)F)cc1Cl (stereo not drawn),percent Bodipy-positive cells,[2],74.94 ± 0.18%
COC(=O)C1=CCCN(C)C1 [Arecoline],percent Bodipy-positive cells,[1],29.5 ± 32%
same,percent Bodipy-positive cells,[2],19.4 ± 0.27%
COC(=O)C1=CCCN(C)C1 [Arecoline hydrobromide],percent Bodipy-positive cells,,18.1 ± 4.7%
same,percent Bodipy-positive cells,[2],20% and 30.5%
C=C(C)[C@H]1Cc2c(ccc3c2O[C@@H]2COc4cc(OC)c(OC)cc4[C@@H]2C3=O)O1 [Rotenone],percent Bodipy-positive cells,[2],35.6 ± 2.9%
CC(CN)CC(=O)O (stereo not drawn) [3-Methyl-GABA],percent Bodipy-positive cells,[2],9.29 ± 0.97%
COc1cc2c(cc1OC)[C@@]13CCN4CC5=CCO[C@H]6CC(=O)N2[C@H]1[C@H]6[C@H]5C[C@H]43 [Brucine],percent Bodipy-positive cells,[3],11.2 ± 2%
same,percent Bodipy-positive cells,[2],20.8% and 20.7%
Fc1ccc(C(OCCN2CCN(CCCc3ccccc3)CC2)c2ccc(F)cc2)cc1,percent Bodipy-positive cells,[2],100%
CC(C)(C)NCC(O)c1cc(Cl)c(N)c(Cl)c1 (stereo not drawn) [Clenbuterol hydrochloride],percent Bodipy-positive cells,,35 ± 9.8%
CC(C)(C)NCC(O)c1cc(Cl)c(N)c(Cl)c1 (stereo not drawn) [Clenbuterol],percent Bodipy-positive cells,library stock concentration: 7.2 mM,15.5 ± 3.5%
CS(=O)(=O)O.Oc1ccc2c3c1O[C@H]1c4oc5ccccc5c4C[C@@]4(O)C(C2)N(CC2CC2)CCC314 (stereo partly drawn) [Naltriben methanesulfonate],percent Bodipy-positive cells,[2],96.9 ± 2.5%
CNC(C)C(O)c1ccccc1 (stereo not drawn) [Racephedrine hydrochloride],percent Bodipy-positive cells,library stock concentration: 9.9 mM,14.4 ± 1.7%
same,percent Bodipy-positive cells,[2],7.46 ± 0.77%
O=C1Nc2cc(Cl)c(Cl)cc2N2CCNCC12 (stereo not drawn),percent Bodipy-positive cells,[2],36.6 ± 7%
CC[C@H]1CN2CCc3cc(OC)c(OC)cc3[C@@H]2C[C@@H]1C[C@H]1NCCc2cc(OC)c(OC)cc21 [Emetine dihydrochloride hydrate],percent Bodipy-positive cells,[2],97.65 ± 0.74%
CC[C@H]1CN2CCc3cc(OC)c(OC)cc3[C@@H]2C[C@@H]1C[C@H]1NCCc2cc(OC)c(OC)cc21 [Emetine],percent Bodipy-positive cells,[2],74.7 ± 3.9%
CC(C)(C)NCC(O)COc1cccc2[nH]c(C#N)cc12 (stereo not drawn) [Cyanopindolol hemifumarate],percent Bodipy-positive cells,[2],11.6 ± 1.8%
C=C(C)[C@@H]1CCC(C)=C[C@H]1C1=C(O)C(=O)C(CCCCC)=CC1=O,percent Bodipy-positive cells,[4],15.6 ± 3.2%
COc1cc([C@@H]2c3cc4c(cc3[C@H](O)[C@H]3COC(=O)[C@H]23)OCO4)cc(OC)c1OC [Podophyllotoxin],percent Bodipy-positive cells,,25.4 ± 7.4%
same,percent Bodipy-positive cells,[2],67.4 ± 5%
COc1cc([C@@H]2c3cc4c(cc3[C@H](O)[C@H]3COC(=O)[C@H]23)OCO4)cc(OC)c1OC [Podofilox],percent Bodipy-positive cells,library stock concentration: 4.8 mM,39.45 ± 0.073%
same,percent Bodipy-positive cells,[2],75.1 ± 2.4%
CCNC1(c2cccs2)CCCCC1=O (stereo not drawn) [Tiletamine hydrochloride],percent Bodipy-positive cells,,9.1 ± 4.1%
Cc1ccc(O)cc1.Cc1cccc(O)c1.Cc1ccccc1O [Cresol],percent Bodipy-positive cells,[2],5.63 ± 0.42%
same,percent Bodipy-positive cells,library stock concentration: 18.5 mM,1.54 ± 0.8%
CS(=N)(=O)CC[C@H](N)C(=O)O (stereo partly drawn) [L-Methionine sulfoximine],percent Bodipy-positive cells,[2],38.9 ± 4.5%
CS(=N)(=O)CC[C@H](N)C(=O)O (stereo partly drawn) [Methionine sulfoximine (L)],percent Bodipy-positive cells,,50.3 ± 18%
CC[C@H]1[C@@H]2C[C@H]3[C@@H]4N(C)c5ccccc5[C@]45C[C@@H]([C@@H]2[C@H]5O)N3[C@@H]1O [Ajmaline],percent Bodipy-positive cells,,42.5 ± 5.6%
same,percent Bodipy-positive cells,[2],32.7 ± 16%
O=C(CCCN1CCC2(CC1)C(=O)N(Cc1cccc(F)c1)CN2c1ccccc1)c1ccc(F)cc1.O=C(O)/C=C\C(=O)O [3'-Fluorobenzylspiperone maleate],percent Bodipy-positive cells,[2],65.2 ± 2.9%
C[C@@H]1CC[C@H]2[C@@H](C)C(=O)O[C@@H]3O[C@@]4(C)CC[C@@H]1[C@]32OO4 [Artemisinin],percent Bodipy-positive cells,,30.3 ± 8.1%
same,percent Bodipy-positive cells,[1],12.2 ± 1.3%
same,percent Bodipy-positive cells,library stock concentration: 7.1 mM,10.2 ± 5%
CCCCCCCC/C=C\CCCCCCCC(=O)OC[C@@H](COP(O)(O)=S)OC,percent Bodipy-positive cells,[4],15.4 ± 1%
CCC1(c2cccc(O)c2)CCCCN(C)C1 (stereo not drawn) [Meptazinol HCl],percent Bodipy-positive cells,[1],10.1 ± 3.6%
same,percent Bodipy-positive cells,[2],40.8 ± 4.2%
CCC1(c2cccc(O)c2)CCCCN(C)C1 (stereo not drawn) [Meptazinol hydrochloride],percent Bodipy-positive cells,,23.8 ± 0.57%
COc1ccc2c(c1)/C(=C/c1cnc[nH]1)C(=O)N2,percent Bodipy-positive cells,[1],19.7 ± 4.6%
Cc1[nH]c2ccc(Cl)cc2c1C1=CCNCC1.Cl,percent Bodipy-positive cells,[2],69.75 ± 0.24%
CN1[C@@H](C[C@@H](O)c2ccccc2)CCC[C@H]1C[C@H](O)c1ccccc1 [Lobelanidine hydrochloride],percent Bodipy-positive cells,,39 ± 3%
CCCN(CCC)CCc1ccc(O)c(O)c1 [Dipropyldopamine hydrobromide],percent Bodipy-positive cells,[2],39 ± 3%
COc1ccc(C[C@H]2NC[C@H](O)[C@H]2OC(C)=O)cc1 [Anisomycin],percent Bodipy-positive cells,[2],92.83 ± 0.86%
O=C1c2ccccc2C(=O)c2ccccc21 [Anthraquinone],percent Bodipy-positive cells,[2],27.6 ± 16%
"Ic1ccccc1CNC1C2CCN(CC2)C1C(c1ccccc1)c1ccccc1 [L-703,606 oxalate salt hydrate]",percent Bodipy-positive cells,[2],98.04 ± 0.52%
COc1ccc2c(c1)[nH]c1c(C)nccc12 [Harmine],percent Bodipy-positive cells,[4],25.1 ± 6.8%
same,percent Bodipy-positive cells,[2],87.05 ± 0.27%
CC1(C)C(C=C(Cl)Cl)C1C(=O)OCc1cccc(Oc2ccccc2)c1 (stereo not drawn),percent Bodipy-positive cells,[2],43.1 ± 3.8%
CO[C@H](C/C=C\C=C\CC/C=C/C[C@H](C)/C=C/C(=C\C(=O)O)CC(=O)O)/C(C)=C\C=C(/C)C(=O)O [Bongkrekic acid],percent Bodipy-positive cells,[4],18.8 ± 7.9%
O=[N+]([O-])c1ccc([As](=O)(O)O)cc1,percent Bodipy-positive cells,[2],27.1 ± 3.4%
CN(C)NC(=O)CCC(=O)O [Daminozide],percent Bodipy-positive cells,library stock concentration: 80 uM,37 ± 0.46%
same,percent Bodipy-positive cells,library stock concentration: 400 uM,43.2 ± 2.4%
same,percent Bodipy-positive cells,library stock concentration: 2 mM,40.8 ± 0.9%
same,percent Bodipy-positive cells,[2],35.4 ± 5.9%
NCCc1c[nH]c2ccc(O)cc12 [Serotonin hydrochloride],percent Bodipy-positive cells,,31.1 ± 6.9%
same,percent Bodipy-positive cells,[2],42.8 ± 0.49%
NCCc1c[nH]c2ccc(O)cc12 [Serotonin],percent Bodipy-positive cells,[2],4.87 ± 1.1%
NCCc1c[nH]c2ccc(O)cc12 [Serotonin HCl],percent Bodipy-positive cells,[1],5.99 ± 0.99%
same,percent Bodipy-positive cells,[2],27.1 ± 8.5%
"CNC(C)[C@H](O)c1ccccc1 (stereo partly drawn) [Ephedrine (1r,2s) hydrochloride]",percent Bodipy-positive cells,[2],13.1 ± 2%
CCN(C(C)=O)c1cccc(-c2ccnc3c(C#N)cnn23)c1 [Zaleplon],percent Bodipy-positive cells,[2],6.1 ± 0.64%
C=C1[C@@H](O)[C@@H]2O[C@]3(CC[C@H](/C=C/[C@@H](C)[C@@H]4CC(C)=C[C@@]5(O[C@H](C[C@@](C)(O)C(=O)O)CC[C@H]5O)O4)O3)CC[C@H]2O[C@@H]1[C@@H](O)C[C@H](C)[C@H]1O[C@@]2(CCCCO2)CC[C@H]1C [Okadaic acid],percent Bodipy-positive cells,library stock concentration: 600 uM,100%
CCC(COC(=O)c1cc(OC)c(OC)c(OC)c1)(c1ccccc1)N(C)C (stereo not drawn) [Trimebutine],percent Bodipy-positive cells,[1],18 ± 0.33%
same,percent Bodipy-positive cells,[2],28.2 ± 14%
C/C=C(\C)C(=O)N[C@@H](c1ccccc1)[C@@H](O)C(=O)O[C@H]1C[C@@]2(O)[C@@H](OC(=O)c3ccccc3)[C@@H]3[C@]4(OC(C)=O)CO[C@@H]4C[C@H](O)[C@@]3(C)C(=O)[C@H](OC(C)=O)C(=C1C)C2(C)C [Cephalomannine],percent Bodipy-positive cells,[1],13.7 ± 9.2%
same,percent Bodipy-positive cells,[2],22.4 ± 3.7%
C[C@H]1C(=O)O[C@@H]2CCN3CC=C(COC(=O)[C@](C)(O)[C@]1(C)O)[C@H]23 [Monocrotaline],percent Bodipy-positive cells,,36.1 ± 7.8%
same,percent Bodipy-positive cells,[2],18.7 ± 0.57%
COC1=C[C@@H]2C3=C([C@@H]2C1=O)[C@@H](NC(C)=O)CCc1cc(OC)c(OC)c(OC)c13 [Lumicolchicine gamma],percent Bodipy-positive cells,,29.3 ± 8.9%
C=C(C)[C@@H]1[C@H]2OC(=O)[C@@H]1[C@]1(O)C[C@H]3OC34C(=O)O[C@H]2[C@@]41C.CC(C)(O)[C@@H]1[C@H]2OC(=O)[C@@H]1[C@]1(O)C[C@H]3OC34C(=O)O[C@H]2[C@@]41C (stereo partly drawn) [Picrotoxin],percent Bodipy-positive cells,[2],34.2 ± 11%
"CC(=O)OCC1=C(C(=O)O)N2C(=O)[C@@H](N)[C@H]2SC1 [Cephalosporanic acid, 7-amino]",percent Bodipy-positive cells,,23.7 ± 8.7%
CO[C@]12C[C@@H](COC(=O)c3cncc(Br)c3)CN(C)[C@@H]1Cc1cn(C)c3cccc2c13 [Nicergoline],percent Bodipy-positive cells,,38.3 ± 30%
C[N+]12CCC(CC1)C(OC(=O)C(O)(c1ccccc1)c1ccccc1)C2 (stereo not drawn) [Clidinium bromide],percent Bodipy-positive cells,,8.53 ± 0.098%
same,percent Bodipy-positive cells,[2],6.9 ± 0.38%
OC[C@@H](O)[C@H]1O[C@@H]2O[C@H](C(Cl)(Cl)Cl)O[C@@H]2[C@H]1O,percent Bodipy-positive cells,[2],31.6 ± 7.3%
CCCCC/C=C\C/C=C\C/C=C\C/C=C\CCCC(=O)Nc1cccc(O)c1 [N-(3-hydroxyphenyl)-Arachidonoyl amide],percent Bodipy-positive cells,[4],14.2 ± 1.6%
CC(=O)OC12COC1CC(O)C1(C)C(=O)C(O)C3=C(C)C(O)CC(O)(C(OC(=O)c4ccccc4)C21)C3(C)C (stereo not drawn) [10-Deacetylbaccatin-III],percent Bodipy-positive cells,[1],10.2 ± 1.3%
same,percent Bodipy-positive cells,[2],22.8 ± 7.2%
"CCCN1CCc2cc(O)cc3c2[C@H]1Cc1ccc(O)c(O)c1-3 [R(-)-2,10,11-Trihydroxy-N-propylnoraporphine hydrobromide]",percent Bodipy-positive cells,[2],39 ± 3%
CN1C(=O)CN=C(c2ccccc2)c2cc([N+](=O)[O-])ccc21 [Nimetazepam],percent Bodipy-positive cells,[2],6.91 ± 4.4%
C/C1=C/C(=O)O[C@@H]2C[C@@H](CC[C@H](C)/C=C\CC1)O[C@@](O)([C@@H]1CSC(=O)N1)C2 [Latrunculin B],percent Bodipy-positive cells,library stock concentration: 12.6 mM,75.8 ± 8.8%
C[C@@]12N[C@@H](Cc3ccccc31)c1ccccc12 [(-)-MK 801 hydrogen maleate],percent Bodipy-positive cells,,11.3 ± 5.7%
C[C@@]12N[C@@H](Cc3ccccc31)c1ccccc12 [(-)-MK 801 Maleate],percent Bodipy-positive cells,[1],18.9 ± 1.9%
same,percent Bodipy-positive cells,[2],38.5 ± 7.2%
C[C@@]12N[C@@H](Cc3ccccc31)c1ccccc12 [(-)-MK-801 hydrogen maleate],percent Bodipy-positive cells,[2],63.7 ± 5%
C[C@@]12N[C@@H](Cc3ccccc31)c1ccccc12 [(-)-MK 801 maleate],percent Bodipy-positive cells,[2],21.7 ± 5.3%
CC(CC(C(N)=O)(c1ccccc1)c1ccccc1)N(C)C (stereo not drawn) [Aminopentamide],percent Bodipy-positive cells,[3],20.5 ± 6.2%
